Source: patent EP0310585B1, “Octapeptide inhibitors of myristoylating enzymes” (WASHINGTON UNIVERSITY, priority 1987, dated 1989)
Not every detail of the peptide structures is certain; ends, links or a residue may be inferred. Marks after values point to notes of the source that are not given here. Where no end group is shown, it is not given here.

Target: T1, N-myristoylglycylpeptide synthetase (N-myristoyl transferase or NMT) (Saccharomyces cerevisiae, UniProt P14743)
T1 construct: endogenous in cells; host or cells: S. cerevisiae strain JR153
T1 sequence (P14743 1-455): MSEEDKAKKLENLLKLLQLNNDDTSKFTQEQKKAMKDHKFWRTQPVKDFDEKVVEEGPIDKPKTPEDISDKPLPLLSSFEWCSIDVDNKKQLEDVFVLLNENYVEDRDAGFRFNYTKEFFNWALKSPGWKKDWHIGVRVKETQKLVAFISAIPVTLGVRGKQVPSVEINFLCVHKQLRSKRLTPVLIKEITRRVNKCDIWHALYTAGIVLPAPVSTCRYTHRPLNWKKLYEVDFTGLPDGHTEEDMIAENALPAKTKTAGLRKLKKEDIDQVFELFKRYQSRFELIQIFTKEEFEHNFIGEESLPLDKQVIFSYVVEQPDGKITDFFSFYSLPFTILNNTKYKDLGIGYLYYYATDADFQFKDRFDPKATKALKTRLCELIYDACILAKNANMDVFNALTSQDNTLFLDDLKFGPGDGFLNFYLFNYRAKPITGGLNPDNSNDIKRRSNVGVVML
Assay: Octapeptide substrate specificity / kinetic characterization with partially purified yeast myristoylating enzyme (Table II)
Format: biochemical
Details: relative to Gly-Asn-Ala-Ala-Ala-Ala-Arg-Arg = 100
Method: The synthetic octapeptides I and II were initially used to identify a unique enzymatic activity which transfers myristic acid to the amino terminal glycine of this and other peptides. […] The enzyme activity was determined in an in vitro assay which measures the transfer of [³H]-myristic acid to the acceptor peptide, […]. The transfer reaction is dependent on adenosine triphosphate (ATP) and coenzyme A (CoA). The enzymatic product was then identified by high performance liquid chromatography (HPLC) by co-elution with a chemically synthesized myristoyl peptide standard. […] Both contained M-myristoyl glycine.
Assay for N-myristoylglycylpeptide synthetase activity. [³H]Fatty acyl CoA was synthesized enzymatically and added to the incubation as follows. […] Typically, 40% to 50% of the [³H]fatty acid was converted to its CoA ester by this procedure as measured by determining the radioactivity remaining in the reaction after acidification with 6 N HCl to pH 2.0 and extraction 6 times with 5 volumes of heptane, a modification of the method of Hosaka et al., Meth. […] (Under these conditions, 95% of synthetic [³H]myristoylpeptide or [³H]palmitoylpeptide remined soluble when added to an assay mixture.) Fifty microliters of the supernatant were mixed with 75 µl methanol and 75 µl of HPLC buffer A, and analyzed by reverse phase HPLC on a 3.9 mm by 30 cm Waters µ-Bondapak C₁₈ column using the same HPLC buffers described above, starting at 35% acetonitrile and eluting with a 1% per minute acetonitrile gradient. One minute fractions were collected and the radioactivity in each fraction determined by liquid scintillation counting. […]

| Substance | Relative Vmax(%) |
| --- | --- |
| GLAAAARR-NH2 [Gly-Leu-Ala-Ala-Ala-Ala-Arg-Arg] | 5% |
| GNAAAARR-NH2 [Gly-Asn-Ala-Ala-Ala-Ala-Arg-Arg] | 100* % |
| GVAAAARR-NH2 [Gly-Val-Ala-Ala-Ala-Ala-Arg-Arg] | 8% |
